Values from PubChem BioAssay AID1159584 (Peter MacCallum Cancer Centre, 2016).

- Assay: 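Genes that CDH1-null MCF10A cells selectively depend on to survive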 (primary screen)
- System: human MCF10A breast epithelial cells, parental and CDH1-null
- Reagents: siRNA against human genes
- Read-out: 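Cell viability by CellTiter-Glo ATP luminescence, each line scaled to the mean of mock wells across plates, then CDH1-null over parental ratio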
- Scale: CDH1-null / parental viability ratio: higher = CDH1-null cells survive relatively better than parental; CDH1-null viability vs mock: higher = more viable CDH1-null cells
- Units: CDH1-null viability vs mock in fraction of mock
The deposit covers about 18,000 reagents; below is a part drawn at random. Further read-outs or replicates are left out here. Not stated in the record: the amount of reagent, the time to read-out.

What is on record for CRYBB2 (crystallin beta B2)?
CDH1-null / parental viability ratio: 0.93; CDH1-null viability vs mock: 0.64

With RAB36 (RAB36, member RAS oncogene family), what does the deposit list?
CDH1-null / parental viability ratio: 0.8; CDH1-null viability vs mock: 0.74

For FAN1 (FANCD2 and FANCI associated nuclease 1), what was measured?
CDH1-null / parental viability ratio: 0.82; CDH1-null viability vs mock: 0.65

With PCDHGA7 (protocadherin gamma subfamily A, 7), how do the results read?
CDH1-null / parental viability ratio: 0.79; CDH1-null viability vs mock: 0.64

For CLEC4D (C-type lectin domain family 4 member D), what was measured?
CDH1-null / parental viability ratio: 1.01; CDH1-null viability vs mock: 1.1

With PAGE3 (PAGE family member 3), what does the deposit list?
CDH1-null / parental viability ratio: 1.41; CDH1-null viability vs mock: 0.65

How did the screen score PEX2 (peroxisomal biogenesis factor 2)?
CDH1-null / parental viability ratio: 0.91; CDH1-null viability vs mock: 0.73

How did the screen score SEC63 (SEC63 protein translocation regulator)?
CDH1-null / parental viability ratio: 0.82; CDH1-null viability vs mock: 0.91

What did the screen give for PTGR1 (prostaglandin reductase 1)?
CDH1-null / parental viability ratio: 0.95; CDH1-null viability vs mock: 0.87

Ordered by “CDH1-null viability vs mock” (lowest first): some entries from above.
FAN1 (FANCD2 and FANCI associated nuclease 1) | CDH1-null / parental viability ratio = 0.82; CDH1-null viability vs mock = 0.65
RAB36 (RAB36, member RAS oncogene family) | CDH1-null / parental viability ratio = 0.8; CDH1-null viability vs mock = 0.74

The listing continues.
For P2RY11 (purinergic receptor P2Y11), what was measured?
CDH1-null / parental viability ratio: 1.31; CDH1-null viability vs mock: 0.88

Which result is listed for MAST4?
CDH1-null / parental viability ratio: 1.2; CDH1-null viability vs mock: 1.04

With C5AR1 (complement C5a receptor 1), how do the results read?
CDH1-null / parental viability ratio: 0.88; CDH1-null viability vs mock: 0.58

What is on record for ARFGEF2 (ARF guanine nucleotide exchange factor 2)?
CDH1-null / parental viability ratio: 1.23; CDH1-null viability vs mock: 1.07

Which result is listed for MED24 (mediator complex subunit 24)?
CDH1-null / parental viability ratio: 0.95; CDH1-null viability vs mock: 0.86

With PHLDA2 (pleckstrin homology like domain family A member 2), what was measured?
CDH1-null / parental viability ratio: 1.34; CDH1-null viability vs mock: 0.43

What did the screen give for PPP1R15A (protein phosphatase 1 regulatory subunit 15A)?
CDH1-null / parental viability ratio: 1.08; CDH1-null viability vs mock: 0.97

With JUND (JunD proto-oncogene, AP-1 transcription factor subunit), how do the results read?
CDH1-null / parental viability ratio: 0.96; CDH1-null viability vs mock: 0.74

What did the screen give for TBPL2 (TATA-box binding protein like 2)?
CDH1-null / parental viability ratio: 0.79; CDH1-null viability vs mock: 0.63

With UBL5 (ubiquitin like 5), how do the results read?
CDH1-null / parental viability ratio: 0.8; CDH1-null viability vs mock: 0.32

What did the screen give for GNAT2 (G protein subunit alpha transducin 2)?
CDH1-null / parental viability ratio: 1.8; CDH1-null viability vs mock: 0.79

With CD40 (CD40 molecule), how do the results read?
CDH1-null / parental viability ratio: 0.96; CDH1-null viability vs mock: 0.73

What did the screen give for FBXO24 (F-box protein 24)?
CDH1-null / parental viability ratio: 0.98; CDH1-null viability vs mock: 0.82

With FAM131A (family with sequence similarity 131 member A), how do the results read?
CDH1-null / parental viability ratio: 1.17; CDH1-null viability vs mock: 0.82

With ITPR1 (inositol 1,4,5-trisphosphate receptor type 1), what does the deposit list?
CDH1-null / parental viability ratio: 1.19; CDH1-null viability vs mock: 0.86
